Consider six sequences from paper PMC10557143, “Promoter R-Loops Recruit U2AF1 to Modulate Its Phase Separation and RNA Splicing”.

For at least one entry, the source does not settle the construct or the ends of the probe. For some of these results: A weaker result is weaker than the reference pair of the same experiment. Tags and fusion partners may be left off the protein sequences shown. For some of these results: At least one verdict rests on a figure or table, not on a statement of the authors.

For one data set, the target named is T1, U2AF1-ZF2 (human) (UniProt Q01081).
T1 sequence (looked up, limits assumed): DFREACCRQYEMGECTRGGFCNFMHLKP
The data set can be described thus: fluorescence anisotropy. Particulars: Anisotropy: 10 nM probe, 10 mM Tris-HCl pH 7.5, 1 mM EDTA, 100 mM KCl, 0.1 mM DTT, 10 ug/mL BSA, 30 min on ice; recombinant protein; protein details: His6 (pET30a); label: 5' Cy3 on RNA strand; DNA:RNA hybrid. Background: Fluorescence polarisation rises when a labelled molecule tumbles more slowly, as on binding a larger partner.

The target of a further data set is T2, U2AF1-ZF1 (human) (UniProt Q01081).
T2 sequence (looked up, limits assumed): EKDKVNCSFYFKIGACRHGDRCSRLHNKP
In words: fluorescence anisotropy. Particulars: Anisotropy: 10 nM probe, 10 mM Tris-HCl pH 7.5, 1 mM EDTA, 100 mM KCl, 0.1 mM DTT, 10 ug/mL BSA, 30 min on ice; recombinant protein; protein details: His6 (pET30a); label: 5' Cy3 on RNA strand; DNA:RNA hybrid.

In data set [1] the target is T3, U2AF1 (human) (UniProt Q01081).
T3 sequence (looked up, limits assumed): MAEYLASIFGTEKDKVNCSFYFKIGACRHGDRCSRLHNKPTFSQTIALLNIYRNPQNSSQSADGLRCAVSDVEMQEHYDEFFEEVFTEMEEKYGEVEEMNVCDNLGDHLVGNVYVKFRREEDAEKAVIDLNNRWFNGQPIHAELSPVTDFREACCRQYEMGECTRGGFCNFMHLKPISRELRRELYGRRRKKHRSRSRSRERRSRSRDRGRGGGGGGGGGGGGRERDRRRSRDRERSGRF
The data set can be described thus: fluorescence anisotropy. Particulars: Anisotropy: 10 nM probe, 10 mM Tris-HCl pH 7.5, 1 mM EDTA, 100 mM KCl, 0.1 mM DTT, 10 ug/mL BSA, 30 min on ice; recombinant protein; protein details: His6 (pET30a); label: 5' Cy3 on non-templated strand.

Data set [2] concerns the target T3, U2AF1 (human). In words: EMSA. Particulars: K+ buffer, Kd very similar to anisotropy, recombinant protein, protein details: His6 (pET30a), label: 5' TAMRA. Background: Mobility shift assays separate free from complexed probe on a gel.
The target in data set [3] is T3, U2AF1 (human). The data set can be described thus: phase separation, fluorescence microscopy. Particulars: recombinant protein, protein details: His6 (pET30a), label: 5' Cy3 on RNA strand.

On to “GCGAGGGGCGGCCGGAGAGC (double strand) [RNA/DNA hybrid]”, for which the binding result with U2AF1-ZF2 (human) and with U2AF1-ZF1 (human) was “binds more weakly” each time.

“GCGAGGGGCGGCCGGAGAGC (double strand) [dsDNA]”: the binding result with U2AF1 (human) [1] was “binds more weakly”. For the sequence AGGGAGGGCTCTGTGAGGAGGG [cKIT_M4], the binding result in the data set with U2AF1 (human) [2] (single-stranded DNA) is “binds”. Turning to “GCGAGGGGCGGCCGGAGAGC / CCGCTCCGGCAGCTCAGGCCCTGGCGCTCTCCGGCCGCCCCTCGCCCGCCCGGGCTCCTCCTCCTGTGCC / GGCACAGGAGGAGGAGTTTTTTCAGGGAGGGCTCTGTGAGGAGGGCATTTTTTGAGCTGCCGGAGCGG [cKIT M4-R-loop]”, in the data set with U2AF1 (human) [3] (fewer foci than G4-R-loop), the binding result is recorded as “binds”. With AGGGAGGGCGCTGGGAGGAGGG [cKIT_G4], the binding result in the data set with U2AF1 (human) [2] (folded or branched DNA) is listed as “binds”. As to “GCGAGGGGCGGCCGGAGAGC / CCGCTCCGGCAGCTCAGGCCCTGGCGCTCTCCGGCCGCCCCTCGCCCGCCCGGGCTCCTCCTCCTGTGCC / GGCACAGGAGGAGGAGTTTTTTCAGGGAGGGCGCTGGGAGGAGGGCATTTTTTGAGCTGCCGGAGCGG [cKIT G4-R-loop]”, the binding result in the data set with U2AF1 (human) [3] (enhances droplets more than M4-R-loop) was “binds”.
